# Assay results as given in the supplement of paper PMC7024190.
# Counter-ions that a name gives are not always drawn. The list shows a part of the results. This data set is noisy: repeats of one test often differ as much as different tests do.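 The cells were human embryonic kidney cells carrying a Renilla luciferase gene, driven by the HSV-TK promoter, on a plasmid put in briefly by transfection. This is the first-round screen of about ten thousand compounds, looking for ones that raise reporter output.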
# Test system: HEK 293FT
# Assay: log relative Renilla luciferase luminescence (reporter expression vs reference, reference not stated) (log (base not stated)); higher = higher recombinant reporter expression
# Settings: 10 µM; time after transfection 48 h
row,SMILES,log
1,C[C@H]1COc2c(C3(N)CC3)c(F)cc3c(=O)c(C(=O)O)cn1c23,-0.108
2,C=CC1=C(C(=O)O)N2C(=O)[C@@H](NC(=O)/C(=N\O)c3csc(N)n3)[C@H]2SC1,0.0116
3,CO[C@H]1/C=C/O[C@@]2(C)Oc3c(C)c(O)c4c(O)c(c5c(nc6cc(C)ccn65)c4c3C2=O)NC(=O)/C(C)=C\C=C\[C@H](C)[C@H](O)[C@@H](C)[C@@H](O)[C@@H](C)[C@H](OC(C)=O)[C@@H]1C,-0.611
4,O=C1c2c(O)cc(O)cc2O[C@H](c2ccc(O)c(O)c2)[C@H]1O,-0.0635
5,"O=C1N[C@H](C(=O)O)CS1 [4-Thiazolidinecarboxylic acid, 2-oxo-, (R)- [CAS]]",0.179
6,CCn1cc(C(=O)O)c(=O)c2cc(F)c(N3CCN(C)CC3)cc21,-0.0796
7,CC(=O)NCCCCCCNC(C)=O,0.112
8,CCOC(=O)C1=C(C)NC(C)=C(C(=O)OC)C1c1cccc([N+](=O)[O-])c1 (centres undefined),-0.412
9,CN(C)CCC=C1c2ccccc2COc2ccccc21 [Doxepin],0.0336
10,CCS(=O)(=O)CCn1c([N+](=O)[O-])cnc1C,0.0883
11,Clc1ccccc1C(c1ccccc1)(c1ccccc1)n1ccnc1,-0.474
12,CCCCC[C@H](O)/C=C/[C@H]1[C@H](O)CC(=O)[C@@H]1CCCCCCC(=O)O [Prostaglandin E1],0.0571
13,"CN=C(N)NCCC[C@H](N)C(=O)O [L-Ornithine, N5-[imino(methylamino)methyl]-[CAS]]",0.14
14,O=C(O)COCCN1CCN([C@H](c2ccccc2)c2ccc(Cl)cc2)CC1,-0.131
15,COCCOC(=O)C1=C(C)NC(C)=C(C(=O)OC(C)C)C1c1cccc([N+](=O)[O-])c1 (centres undefined),0.0133
16,CN1CCN(CCCN2c3ccccc3Sc3ccc(Cl)cc32)CC1,-0.123
17,CCCCCCCCCCC[C@@H](C[C@@H]1OC(=O)[C@H]1CCCCCC)OC(=O)[C@H](CC(C)C)NC=O,-1.33
18,O=c1[nH]c(=O)n(C2CCCO2)cc1F (centres undefined),-0.196
19,CC(=O)O[C@H]1C[C@@H]2CC[C@@H]3[C@H](CC[C@@]4(C)[C@H]3C[C@H]([N+]3(C)CCCCC3)[C@@H]4OC(C)=O)[C@@]2(C)C[C@@H]1N1CCCCC1,-0.111
20,CC(C(=O)O)c1ccc(CC2CCCC2=O)cc1 (centres undefined),-0.147

# Part of the list above in order of SMILES length, low to high:
row,SMILES,log
5,"O=C1N[C@H](C(=O)O)CS1 [4-Thiazolidinecarboxylic acid, 2-oxo-, (R)- [CAS]]",0.179
13,"CN=C(N)NCCC[C@H](N)C(=O)O [L-Ornithine, N5-[imino(methylamino)methyl]-[CAS]]",0.14
9,CN(C)CCC=C1c2ccccc2COc2ccccc21 [Doxepin],0.0336
10,CCS(=O)(=O)CCn1c([N+](=O)[O-])cnc1C,0.0883
11,Clc1ccccc1C(c1ccccc1)(c1ccccc1)n1ccnc1,-0.474
6,CCn1cc(C(=O)O)c(=O)c2cc(F)c(N3CCN(C)CC3)cc21,-0.0796
4,O=C1c2c(O)cc(O)cc2O[C@H](c2ccc(O)c(O)c2)[C@H]1O,-0.0635
12,CCCCC[C@H](O)/C=C/[C@H]1[C@H](O)CC(=O)[C@@H]1CCCCCCC(=O)O [Prostaglandin E1],0.0571
2,C=CC1=C(C(=O)O)N2C(=O)[C@@H](NC(=O)/C(=N\O)c3csc(N)n3)[C@H]2SC1,0.0116
17,CCCCCCCCCCC[C@@H](C[C@@H]1OC(=O)[C@H]1CCCCCC)OC(=O)[C@H](CC(C)C)NC=O,-1.33
19,CC(=O)O[C@H]1C[C@@H]2CC[C@@H]3[C@H](CC[C@@]4(C)[C@H]3C[C@H]([N+]3(C)CCCCC3)[C@@H]4OC(C)=O)[C@@]2(C)C[C@@H]1N1CCCCC1,-0.111

# (continued)

row,SMILES,log
1,COc1ccccc1N1CCN(CC(O)COc2cccc3ccccc23)CC1 (centres undefined),-0.117
2,COC(=O)CCc1ccc(OCC(O)CNC(C)C)cc1 (centres undefined),-0.0963
3,COC(=O)C1=C(C)NC(C)=C(C(=O)OC(C)C)C1c1cccc2nonc12 (centres undefined),-0.126
4,O=C(NCCN1CCOCC1)c1ccc(Cl)cc1 [4-Chloro-N-(2-morpholin-4-yl-ethyl)-benzamide],0.015
5,C[C@@H]1O[C@@H](OC[C@H]2O[C@@H](Oc3c(-c4ccc(O)c(O)c4)oc4cc(O)cc(O)c4c3=O)[C@H](O)[C@@H](O)[C@@H]2O)[C@H](O)[C@H](O)[C@H]1O,-0.335
6,CCCc1nc(C(C)(C)O)c(C(=O)OCc2oc(=O)oc2C)n1Cc1ccc(-c2ccccc2-c2nnn[nH]2)cc1,0.0445
7,COc1cccc2c1C(=O)c1c(O)c3c(c(O)c1C2=O)C[C@@](O)(C(=O)CO)C[C@@H]3O[C@H]1C[C@H](N)[C@H](O)[C@H](C)O1,-1.4
8,CC[C@H](C)C(=O)O[C@H]1CCC=C2C=C[C@H](C)[C@H](CC[C@@H]3C[C@@H](O)CC(=O)O3)[C@H]21 [mevastatin],0.202
9,CCCCC1=NC2(CCCC2)C(=O)N1Cc1ccc(-c2ccccc2-c2nnn[nH]2)cc1,-0.242
10,COc1ccccc1OCC(O)CN1CCN(CC(=O)Nc2c(C)cccc2C)CC1 (centres undefined) [Ranolazine dihydrochloride],-0.185
11,N[C@@H](C(=O)N[C@@H]1C(=O)N2C(C(=O)O)=C(CSc3cn[nH]n3)CS[C@H]12)c1ccc(O)cc1,0.00982
12,CC(C(O)c1ccc(O)cc1)N1CCC(Cc2ccccc2)CC1 (centres undefined) [Ifenprodil],0.115
13,COc1ccc(C(=O)NCc2ccc(OCCN(C)C)cc2)cc1OC,-0.315
14,Cc1ccc(O)c([C@H](CCN(C(C)C)C(C)C)c2ccccc2)c1,-0.000179
15,O=[N+]([O-])c1cccc2cn[nH]c12,0.155
16,c1ccc(-c2ccc(C(c3ccccc3)n3ccnc3)cc2)cc1 (centres undefined),-0.306
17,CN(C)CCc1c[nH]c2ccc(C[C@H]3COC(=O)N3)cc12 [Zolmitriptan],0.078
18,Cc1ccsc1C(=CCCN1CCC[C@@H](C(=O)O)C1)c1sccc1C,0.0503
19,CN1C2CCCC1CC(NC(=O)c1nn(C)c3ccccc13)C2 (centres undefined),0.121
